From ChEMBL document CHEMBL3988442, “University of Dundee, Small-Polar-MMV Screening Library” (2021).

By UniProt entry, the sequences of proteins in these tests, tags left out.
UniProt E9BF75, entry or part of it: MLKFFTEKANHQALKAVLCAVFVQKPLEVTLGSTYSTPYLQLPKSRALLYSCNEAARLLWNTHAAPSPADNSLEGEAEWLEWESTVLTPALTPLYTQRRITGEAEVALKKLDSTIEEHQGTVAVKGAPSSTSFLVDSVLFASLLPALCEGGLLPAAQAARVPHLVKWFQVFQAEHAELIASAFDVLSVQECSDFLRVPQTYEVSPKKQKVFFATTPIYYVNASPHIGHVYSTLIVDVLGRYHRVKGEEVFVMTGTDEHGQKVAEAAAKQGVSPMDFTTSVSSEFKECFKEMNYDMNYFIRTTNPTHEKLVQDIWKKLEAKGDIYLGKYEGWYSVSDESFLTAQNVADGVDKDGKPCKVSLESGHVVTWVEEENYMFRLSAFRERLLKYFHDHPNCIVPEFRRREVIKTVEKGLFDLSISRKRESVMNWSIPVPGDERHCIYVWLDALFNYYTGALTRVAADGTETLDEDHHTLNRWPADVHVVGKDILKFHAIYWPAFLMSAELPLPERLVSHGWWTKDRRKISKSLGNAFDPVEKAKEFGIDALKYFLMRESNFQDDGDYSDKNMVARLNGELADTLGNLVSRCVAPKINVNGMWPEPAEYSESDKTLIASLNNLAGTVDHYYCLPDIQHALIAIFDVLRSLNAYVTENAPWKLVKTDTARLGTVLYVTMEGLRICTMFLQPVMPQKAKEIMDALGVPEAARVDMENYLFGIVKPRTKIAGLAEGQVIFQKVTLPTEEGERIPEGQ

LdMetRS: 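Methionyl-tRNA synthetase (putative), Leishmania donovani (UniProt E9BF75). Primary screen of methionyl-tRNA synthetase; the read-out is not stated. The test concentration is not given. Values are per cent inhibition. Size under these conditions: about 68,000 compounds, about 24 of them at 50% or above in at least one test.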
Mtb heat-shock: 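Assay on Mycobacterium tuberculosis, filed only as a heat shock assay from Cornell; the read-out is not stated. The concentration is filed as 10 mM, unlikely as a test dose, so the dose is not known. The record gives no direction; compounds that gave an IC50 in retests scored well above the rest, so higher reads as stronger inhibition. About 69,000 compounds were tested under these conditions; 1.4% (about 930) showed 50% or more at least once.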

All values are in %.
How 0% and 100% were set is not recorded. Most values in the screen are low, and negative values occur.
The compounds are a random part of those screened.
A dash means the value is not listed here; it may have been measured.

Compound	LdMetRS	Mtb heat-shock
O=C(c1ccnc(-n2ccnc2)c1)N1CCCC(n2cccn2)C1 (centres undefined)	9.117%	-6.83%
CCC(=O)N1CCC(NC2CCCC2)C1 (centres undefined)	9.756%	32.55%
O=c1[nH]c2c(c(=O)n1C1CCCCC1)CCC2Nc1ccccc1 (centres undefined)	2.075%	11.99%
O=C(O)C(F)(F)F.c1cnc(NC2COC3(CCN(Cc4cc[nH]n4)CC3)C2)nc1 (centres undefined)	-	-22.6%
CN1CCN(C(=O)CCc2cccnc2)c2ccc(F)cc21	7.971%	15.62%
COc1ccc(OC)c(CCNc2ncc(S(N)(=O)=O)s2)c1	9.777%	5.256%
Cc1cnn(CC2CCN(CC(O)CN3CCC(C)CC3)CC2)c1 (centres undefined)	13.09%	5.418%
O=C(O)C(F)(F)F.[H][C@]12C[C@@H](Cn3cncn3)N(C(C)C)[C@@]1([H])CCN(Cc1ccsc1)C2	-	11.32%
O=C(Cc1ccsc1)N1CCn2cc(CN3CCCC3)nc2C1	24.5%	-2.385%
CC(C)O[C@H]1CN(Cc2cnc3c(-c4ccccc4)cnn3c2)C[C@@H]1O	11.64%	-20.64%
CC(Cn1cccn1)NC(=O)NCc1ccc(S(N)(=O)=O)cc1 (centres undefined)	5.556%	-3.923%
CS(=O)(=O)c1nnc(NC(=O)CCc2cc(F)ccc2F)[nH]1	9.51%	-16.33%
COc1ccc(C(=O)N2CCCCC2Cn2cccn2)c(F)c1 (centres undefined)	6.883%	1.621%
COCCN(Cc1ccccc1)C(=O)c1cnn(C)c1C	8.192%	7.003%
Cn1nnnc1SC1CCN(c2ccccc2Cl)C1=O (centres undefined)	13.18%	-20.29%
COc1cc(N2CCC3(CC2)CC(N2CCOCC2)C3)ncn1	10.56%	-
CS(=O)(=O)CCC(=O)NC1CC(c2ccccc2Cl)C1 (centres undefined)	16.94%	6.066%
[H][C@@]12C[C@H](C(=O)NC(C)C)C[C@@]1([H])OCCN2	-	5.199%
COc1cccc(C(CO)NC(=O)Cc2ccc(F)c(Br)c2)c1 (centres undefined)	21.56%	0.9758%
O=C(O)C(F)(F)F.O=C(O)C(F)(F)F.O=C(O)C(F)(F)F.c1ccc(Cn2cc3c(n2)C(CNCC2CCOCC2)OCC3)nc1 (centres undefined)	-	3.013%
Cn1cc(-c2csc(N3CCN(C(=O)OC(C)(C)C)CC3)n2)cn1	8.85%	12.99%
CCN(CC(=O)NC)C(=O)Cc1csc(C(C)C)n1	2.419%	8.545%
Cc1cc(CNC2CCCN(c3cccnn3)C2)no1 (centres undefined)	3.15%	-1.888%
Cn1cc(-c2ncnc3c2CCN(C(=O)c2cnccn2)CC3)cn1	9.137%	-21.54%
O=C(CN1CCC[C@H]1C(=O)O)NCCOc1cccc(Cl)c1	19.93%	-
CCC(CC)NC(=O)c1cccnc1-n1cccn1	3.78%	-1.191%
O=C(CNc1cc(-c2ccccc2)nc2ccnn12)NC1CC1	7.229%	16.11%
Cc1nc(C2CCCN2Cc2cc(Cl)c3c(c2)OCCO3)no1 (centres undefined)	19.22%	57.05%
Cc1cn2c(n1)CCC(NC(=O)c1cc(C3CC3)[nH]n1)C2 (centres undefined)	20.52%	-16.5%
COCC1CN(C(=O)Nc2ccc(Cl)cc2Cl)CCO1 (centres undefined)	3.631%	-28.1%
CCc1nc(C2CCCN2C(=O)CCCn2cccn2)no1 (centres undefined)	9.408%	16.69%
[H][C@]12CN(Cc3ccoc3)CCN1C[C@@H](c1ccccc1)[C@@H]2C(=O)NC	-	1.939%
Cc1ccc(C(=O)NC2CCCN(C)C2)c(=O)[nH]1 (centres undefined)	15.24%	10.65%
Cc1cc(C)cc(C(=O)NCCCNc2ncccn2)c1	14.66%	-20.28%
CN(CCO)Cc1nnc(C2CCN(C(=O)c3cccnc3)CC2)n1C	16.59%	-2.601%
COc1cc(C(=O)NCCS(=O)(=O)N(C)C)c2ccccc2n1	4.032%	0.7087%
COCCNC(=O)[C@@H](C)[C@@H]1CCc2c(C)cc(OCC(=O)O)c(C)c2C1	7.519%	-
CNC(=O)NC1CC2(CCNCC2)c2ccc(C)cc21 (centres undefined)	0.346%	-20.74%
COCCN(Cc1ccccc1)C(=O)c1csc(-c2nnc[nH]2)n1	-17.48%	11.31%
CC(C)(C)c1ccc(C(=O)C2CCCN(C(=O)CNS(C)(=O)=O)C2)cc1 (centres undefined)	5.882%	-12.62%
CCS(=O)(=O)N1CCC(c2nnc(CN3CCOCC3)n2C)CC1	11.71%	-14.31%
O=C(Cc1cccc(O)c1)N1CCCC(O)(CN2CCCC2)CC1 (centres undefined)	22.15%	13.02%
CN1CCCC1c1cc2cccnc2n1Cc1ccc(F)cc1 (centres undefined)	14.06%	-
Cn1cc(CN2CCCC3(COCCN(Cc4c[nH]nn4)C3)C2)cn1 (centres undefined)	5.185%	-
CCCn1c(C)c(CC(=O)NCCNC(C)=O)c2c1CC(C)(C)CC2=O	13.35%	-19.2%
Cc1cc(C)c2ncc(C#N)c(NC3CCN(CC(N)=O)CC3)c2c1	18.95%	13.6%
CCCN(Cc1cnn(C)c1)S(=O)(=O)c1cccc(F)c1C#N	17.76%	-4.299%
O=C(CCc1nnc2ccccn2c1=O)NCc1ccco1	8.065%	-9.825%
CC(C)CNC(=O)c1cc2c(s1)CCN2Cc1cccnc1	20.42%	3.752%
Cc1nc(C2CCCCN2S(C)(=O)=O)no1 (centres undefined)	9.574%	4.653%
CS(=O)(=O)N1CCCC12CCCN(S(=O)(=O)c1ccc(F)c(F)c1)C2 (centres undefined)	15.23%	-16.43%
Cc1nc(C)n(CC2CN(CC(=O)Nc3nccs3)CCO2)n1 (centres undefined)	15.93%	-0.5176%

The first 4 entries again:

* O=C(c1ccnc(-n2ccnc2)c1)N1CCCC(n2cccn2)C1 (centres undefined) : LdMetRS: 9.117%; Mtb heat-shock: -6.83%
* CCC(=O)N1CCC(NC2CCCC2)C1 (centres undefined) : LdMetRS: 9.756%; Mtb heat-shock: 32.55%
* O=c1[nH]c2c(c(=O)n1C1CCCCC1)CCC2Nc1ccccc1 (centres undefined) : LdMetRS: 2.075%; Mtb heat-shock: 11.99%
* O=C(O)C(F)(F)F.c1cnc(NC2COC3(CCN(Cc4cc[nH]n4)CC3)C2)nc1 (centres undefined) : Mtb heat-shock: -22.6%